{"source": "PubChem BioAssay AID1159584 (Peter MacCallum Cancer Centre, 2016)", "purpose": "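Genes that CDH1-null MCF10A cells selectively depend on to survive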 (primary screen)", "cells": "human MCF10A breast epithelial cells, parental and CDH1-null", "knock-down reagent": "siRNA against human genes", "measured": "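Cell viability by CellTiter-Glo ATP luminescence, each line scaled to the mean of mock wells across plates, then CDH1-null over parental ratio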", "scale": "CDH1-null / parental viability ratio: higher = CDH1-null cells survive relatively better than parental", "note": "Shown is one part, drawn at random, of about 18,000 reagents tested. Not all columns of the deposit are shown. Not stated in the record: the amount of reagent, the time to read-out."}
{"gene": "DNAAF11 (dynein axonemal assembly factor 11)", "CDH1-null / parental viability ratio": 0.97}
{"gene": "PIWIL4 (piwi like RNA-mediated gene silencing 4)", "CDH1-null / parental viability ratio": 0.92}
{"gene": "MZB1 (marginal zone B and B1 cell specific protein)", "CDH1-null / parental viability ratio": 1}
{"gene": "RPL26L1 (ribosomal protein L26 like 1)", "CDH1-null / parental viability ratio": 1.81}
{"gene": "ILDR1 (immunoglobulin like domain containing receptor 1)", "CDH1-null / parental viability ratio": 1.25}
{"gene": "CCDC141 (coiled-coil domain containing 141)", "CDH1-null / parental viability ratio": 1.14}
{"gene": "DEFB123 (defensin beta 123)", "CDH1-null / parental viability ratio": 0.8}
{"gene": "NME4 (NME/NM23 nucleoside diphosphate kinase 4)", "CDH1-null / parental viability ratio": 0.85}
{"gene": "FKBP4 (FKBP prolyl isomerase 4)", "CDH1-null / parental viability ratio": 1.04}
{"gene": "TRPC7", "CDH1-null / parental viability ratio": 1.19}
{"gene": "SLC35E4", "CDH1-null / parental viability ratio": 1.15}
{"gene": "HNRNPU (heterogeneous nuclear ribonucleoprotein U)", "CDH1-null / parental viability ratio": 1.35}
{"gene": "SERHL (serine hydrolase like (pseudogene))", "CDH1-null / parental viability ratio": 1.05}
{"gene": "FERMT2 (FERM domain containing kindlin 2)", "CDH1-null / parental viability ratio": 0.96}
{"gene": "H2BC21 (H2B clustered histone 21)", "CDH1-null / parental viability ratio": 1.27}
{"gene": "CRYL1 (crystallin lambda 1)", "CDH1-null / parental viability ratio": 1.12}
{"gene": "TMX1 (thioredoxin related transmembrane protein 1)", "CDH1-null / parental viability ratio": 0.89}
{"gene": "FUT1 (fucosyltransferase 1 (H blood group))", "CDH1-null / parental viability ratio": 1.01}
{"gene": "RASSF8 (Ras association domain family member 8)", "CDH1-null / parental viability ratio": 1.44}
{"gene": "SCN4A (sodium voltage-gated channel alpha subunit 4)", "CDH1-null / parental viability ratio": 1.09}
{"gene": "ABHD11 (abhydrolase domain containing 11)", "CDH1-null / parental viability ratio": 1.04}
{"gene": "TEX10 (testis expressed 10)", "CDH1-null / parental viability ratio": 0.88}
{"gene": "TIA1 (TIA1 cytotoxic granule associated RNA binding protein)", "CDH1-null / parental viability ratio": 0.62}
{"gene": "PRRC2C (proline rich coiled-coil 2C)", "CDH1-null / parental viability ratio": 1.05}
{"gene": "CLASP2 (cytoplasmic linker associated protein 2)", "CDH1-null / parental viability ratio": 0.93}
{"gene": "NLRP2 (NLR family pyrin domain containing 2)", "CDH1-null / parental viability ratio": 0.96}
{"gene": "CLDN9 (claudin 9)", "CDH1-null / parental viability ratio": 0.72}
{"gene": "TOR1A (torsin family 1 member A)", "CDH1-null / parental viability ratio": 1}
{"gene": "TMEM230 (transmembrane protein 230)", "CDH1-null / parental viability ratio": 1}
{"gene": "MATR3 (matrin 3)", "CDH1-null / parental viability ratio": 1.12}
{"gene": "TMEM54 (transmembrane protein 54)", "CDH1-null / parental viability ratio": 1.4}
{"gene": "RHBDD1 (rhomboid domain containing 1)", "CDH1-null / parental viability ratio": 1.04}
{"gene": "NAPA (NSF attachment protein alpha)", "CDH1-null / parental viability ratio": 0.6}
{"gene": "THAP6 (THAP domain containing 6)", "CDH1-null / parental viability ratio": 0.91}
{"gene": "MAP2K4 (mitogen-activated protein kinase kinase 4)", "CDH1-null / parental viability ratio": 0.96}
{"gene": "CCDC122 (coiled-coil domain containing 122)", "CDH1-null / parental viability ratio": 0.89}
{"gene": "ZNF768 (zinc finger protein 768)", "CDH1-null / parental viability ratio": 0.98}
{"gene": "RFX4 (regulatory factor X4)", "CDH1-null / parental viability ratio": 0.99}
{"gene": "S1PR4 (sphingosine-1-phosphate receptor 4)", "CDH1-null / parental viability ratio": 1.42}
{"gene": "PRR30 (proline rich 30)", "CDH1-null / parental viability ratio": 0.9}
{"gene": "ACBD4 (acyl-CoA binding domain containing 4)", "CDH1-null / parental viability ratio": 0.89}
{"gene": "CBLL2 (Cbl proto-oncogene like 2)", "CDH1-null / parental viability ratio": 1.01}
{"gene": "NUTM1 (NUT midline carcinoma family member 1)", "CDH1-null / parental viability ratio": 1.18}
{"gene": "APOBEC3H (apolipoprotein B mRNA editing enzyme catalytic subunit 3H)", "CDH1-null / parental viability ratio": 1.02}
{"gene": "OR4F21 (olfactory receptor family 4 subfamily F member 21)", "CDH1-null / parental viability ratio": 1.3}

Part of the list above, set out differently.
{"gene":"MATR3 (matrin 3)","CDH1-null / parental viability ratio":1.12}
{"gene":"TMEM54 (transmembrane protein 54)","CDH1-null / parental viability ratio":1.4}
{"gene":"RHBDD1 (rhomboid domain containing 1)","CDH1-null / parental viability ratio":1.04}
{"gene":"NAPA (NSF attachment protein alpha)","CDH1-null / parental viability ratio":0.6}
{"gene":"THAP6 (THAP domain containing 6)","CDH1-null / parental viability ratio":0.91}
{"gene":"MAP2K4 (mitogen-activated protein kinase kinase 4)","CDH1-null / parental viability ratio":0.96}
{"gene":"CCDC122 (coiled-coil domain containing 122)","CDH1-null / parental viability ratio":0.89}
